{"source": "the supplement of paper PMC11150407", "note": "Among all 3,000 compounds or so, about 45 (2%) showed an effect of 50% or more. Some of the results follow.", "data": [{"system": "MOLM1 and UCSD/AML1 (averaged)", "experiment": "cell viability relative to DMSO control (POC); higher = less growth inhibition", "details": "1 µM; 72 h", "experimental": "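Primary viability screen in the 3q26 EVI1-high AML cell lines MOLM1 and UCSD/AML1, compounds at 1 uM for 72 h. ATP CellTiter-Glo read-out given as percent viable over DMSO control (POC), averaged over duplicates. This mapping covers the TimTec NDL-3000 natural derivative library, whose compounds are identified by TimTec catalogue codes (ST...).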", "units": {"cell viability": "%"}, "values": [{"smiles": "COc1cccc(/C=C/C(=O)c2ccc3c(c2)OCO3)c1OC", "cell viability": 76}, {"smiles": "COc1ccc(OC)c(NC(=O)Cn2c(=O)cc(C(=O)N3CCc4ccccc4C3)c3ccccc32)c1", "cell viability": 99.2}, {"smiles": "COc1ccc(C2Nc3ccccc3NC3=C2C(=O)CC(c2ccccc2Cl)C3)cc1O", "note": "(centres undefined)", "cell viability": 109}, {"smiles": "CC(=O)NCCc1c[nH]c2ccc(OCc3ccccc3)cc12", "cell viability": 95.3}, {"smiles": "COc1ccccc1C1NCCC2(O)CCCCC12", "note": "(centres undefined)", "cell viability": 109}, {"smiles": "COc1ccc(C(=O)CC2(O)C(=O)N(Cc3cccc4ccccc34)c3ccccc32)cc1OC", "note": "(centres undefined)", "cell viability": 97.5}, {"smiles": "COc1ccc(Nc2nc(N3CCN(c4nc(-c5ccc(F)cc5)cs4)CC3)nc3ccccc23)c(OC)c1", "cell viability": 91.9}, {"smiles": "CC(=O)Nc1ccc(C(=O)NCCc2c[nH]c3ccc(C)cc23)cc1", "cell viability": 98.4}, {"smiles": "CCCCC(NC(=O)c1ccc(Cl)cc1)C(=O)O", "note": "(centres undefined)", "cell viability": 101}, {"smiles": "C[N+]12CCCCC1C(COc1ccccc1Br)CCC2", "note": "(centres undefined)", "cell viability": 96}, {"smiles": "CC(C)(C)OC(=O)N1Cc2[nH]c3ccccc3c2C[C@@H]1C(=O)O", "cell viability": 97.1}, {"smiles": "COc1cc(/C=N/NC(=O)C2CC(=O)N(c3ccc(C)cc3)C2)cc(OC)c1OC", "note": "(centres undefined)", "cell viability": 109}, {"smiles": "COc1ccc(-c2cc(=O)c3c(OC)c(OC)c(OC)cc3o2)cc1O", "cell viability": 93.4}, {"smiles": "CCOc1cc2c(cc1OCC)C(c1ccc(OC)cc1OC)NCC2", "note": "(centres undefined)", "cell viability": 89.3}, {"smiles": "COc1ccc(C(=O)NCc2cc(C)nc3ccccc23)cc1OC", "cell viability": 111}, {"smiles": "COc1cc(CSc2nc3c(Cl)cc(Cl)cc3o2)cc(OC)c1OC", "cell viability": 102}, {"smiles": "O=C(CCN1C(=O)CCC1=O)OCC1CCCN2CCCCC12", "note": "(centres undefined)", "cell viability": 102}, {"smiles": "Cc1ccc(CSc2nc3c(c(=O)[nH]c(=O)n3C)n2CC(N)=O)cc1", "cell viability": 96.6}, {"smiles": "CCOC(=O)c1cc(C2CC2)nc2c1c(=O)n(Cc1cc(=O)oc3ccc(OCC)cc13)c(=O)n2C", "cell viability": 107}, {"smiles": "Cc1cccc2c1NC(=O)C21C(C#N)=C(N)Oc2c1c(=O)oc1ccccc21", "note": "(centres undefined)", "cell viability": 109}, {"smiles": "COc1ccc(NC(=O)Cc2ccccc2)c(OC)c1", "cell viability": 107}, {"smiles": "Cn1c(SCc2ccc(Cl)cc2)nc2c(=O)[nH]cnc21", "cell viability": 90}, {"smiles": "O=C(Cn1c(=O)cc(C(=O)N2CCCCC2)c2ccccc21)Nc1ccc(F)c(Cl)c1", "cell viability": 98.9}, {"smiles": "CCc1ccc(OCC(=O)c2ccc(O)cc2O)cc1", "cell viability": 90.8}, {"smiles": "COc1ccc(C2c3[nH]c4ccccc4c3CCN2Cc2ccc(C)cc2)cc1", "note": "(centres undefined)", "cell viability": 97}, {"smiles": "Nc1cc(=O)[nH]c(=O)n1-c1ccccc1", "cell viability": 97.9}, {"smiles": "Cc1ccc(-n2c(SCC(=O)N(C)c3ccccc3)nc3c(=O)[nH]cnc32)cc1", "cell viability": 106}, {"smiles": "O=C(O)CC(NC(=O)Cc1c[nH]c2ccccc12)C(=O)O", "note": "(centres undefined)", "cell viability": 90.8}, {"smiles": "COc1ccc2[nH]c(C)c(CCNC(=O)c3ccc(C)cc3)c2c1", "cell viability": 102}, {"smiles": "Cc1ccc(O)c(C(=O)/C=C/c2ccccc2)c1", "cell viability": 98.2}, {"smiles": "CN(C)Cc1c(O)ccc2c(=O)c(-c3ccc(Cl)cc3Cl)coc12", "cell viability": 102}, {"smiles": "COc1cc(CO)cc(OC)c1", "cell viability": 98.9}, {"smiles": "Cc1ccc(S(=O)(=O)OC2C(C3COC(C)(C)O3)OC3OC(C)(C)OC32)cc1", "note": "(centres undefined)", "cell viability": 97}, {"smiles": "Cc1cc2c(C(C)C)c(O)c(O)c(C=Nc3ccc(C(O)C(O)CO)cc3)c2c(O)c1-c1c(C)cc2c(C(C)C)c(O)c(O)c(C=Nc3ccc(C(O)C(O)CO)cc3)c2c1O", "note": "(centres undefined)", "cell viability": 103}, {"smiles": "C=C(C)C1CCC2(COC(=O)c3ccccc3C(=O)O)CCC3(C)C(CCC4C5(C)CCC(OC(=O)c6ccccc6C(=O)O)C(C)(C)C5CCC43C)C12", "note": "(centres undefined)", "cell viability": 95.2}, {"smiles": "O=C(/C=C/c1ccccc1O)c1ccc(O)cc1O", "cell viability": 61.3}, {"smiles": "O=C(Cn1c(=O)cc(C(=O)N2CCOCC2)c2ccccc21)Nc1ccc2c(c1)OCO2", "cell viability": 95.8}, {"smiles": "COc1ccc(/C=C/C(=O)c2ccccc2)cc1COc1ccc(Cl)cc1", "cell viability": 106}, {"smiles": "COc1ccc2c(c1)c(CC(=O)N1CCN(c3ccccc3)CC1)c(C)n2C(=O)c1ccc(Cl)cc1", "cell viability": 97.5}, {"smiles": "ClC1(Cl)C2C3C4C5CC5C(C3C3(CC3)C21)C41CC1", "note": "(centres undefined)", "cell viability": 124}, {"smiles": "COc1cc(C(=O)N2CCN(C(=O)C34CC5CC(CC(C5)C3)C4)CC2)cc(OC)c1OC", "cell viability": 97.5}, {"smiles": "COc1cc(C(C)=O)ccc1OC(=O)C(C)N1C(=O)c2ccccc2C1=O", "note": "(centres undefined)", "cell viability": 97.2}, {"smiles": "CCOC(=O)C1=C(C)NC2=C(C(=O)CC(c3ccc(Cl)cc3)C2)C1c1ccc(O)c(OCC)c1", "note": "(centres undefined)", "cell viability": 104}, {"smiles": "COc1ccc(OC)c(NC(=O)CSc2nc3c(=O)[nH]cnc3n2-c2ccc(C)cc2)c1", "cell viability": 105}, {"smiles": "CCOC(=O)CSc1nc2c(c(=O)[nH]c(=O)n2C)n1Cc1cccc(C)c1", "cell viability": 100}, {"smiles": "CCCc1cc(=O)[nH]c(SCc2ccc(C(=O)Nc3c(C)cccc3C)cc2)n1", "cell viability": 105}, {"smiles": "COc1ccc(Br)cc1C1C(C(=O)OCC2CCCO2)=C(C)NC2=C1C(=O)CCC2", "note": "(centres undefined)", "cell viability": 90.8}, {"smiles": "COc1ccc(C(=O)/C=C/c2ccc(OC)c(Cn3nc(C)c(Br)c3C)c2)cc1", "cell viability": 102}, {"smiles": "COc1cc(C(C)=O)ccc1OCc1ccc(Cl)cc1Cl", "cell viability": 105}, {"smiles": "COc1ccc(C2c3[nH]c4ccccc4c3CCN2C(=O)/C=C/c2cc(OC)c(OC)c(OC)c2)cc1", "note": "(centres undefined)", "cell viability": 32.6}, {"smiles": "COc1cc(C(=O)Nc2ccc(C(=O)c3nccn3C)cc2)cc(OC)c1OC", "cell viability": 91.8}, {"smiles": "COc1cc(-c2c(C#N)c(N)nc(SCC(=O)Nc3ccc(S(N)(=O)=O)cc3)c2C#N)cc(OC)c1OC", "cell viability": 102}, {"smiles": "COc1cc(OC)cc(C(=O)n2nc(C)c(-c3ccccc3)c2N)c1", "cell viability": 100}, {"smiles": "COc1ccc(C=O)c(C(=O)O)c1OC", "cell viability": 99.2}, {"smiles": "CCCCc1[nH]nc2c1C(c1ccc(O)c(OC)c1)C(C#N)=C(N)O2", "note": "(centres undefined)", "cell viability": 104}, {"smiles": "COc1ccc2oc(=O)cc(CN3CCN(Cc4ccc(F)cc4)CC3)c2c1", "cell viability": 103}, {"smiles": "CCCOc1ccc(C(CC(=O)O)NC(=O)c2ccc3c(c2)OCO3)cc1", "note": "(centres undefined)", "cell viability": 97.5}, {"smiles": "Cc1[nH]c2ccccc2c1CCN1C(=O)c2ccccc2C1(O)c1ccccc1", "note": "(centres undefined)", "cell viability": 99.3}, {"smiles": "COc1ccc(C(=O)NCCOc2cccc(Oc3ccccc3)c2)cc1OC", "cell viability": 88.1}, {"smiles": "NC(=O)NC(CCCN=C(N)N)C(=O)O", "note": "(centres undefined)", "cell viability": 101}, {"smiles": "COc1cc(-c2ccc(/C=C/c3[nH]c(=O)[nH]c(=O)c3Cl)o2)c(OC)cc1Cl", "cell viability": 110}, {"smiles": "CCc1ccccc1NC(=O)CSc1nc2c(=O)[nH]cnc2n1-c1ccc(C)cc1", "cell viability": 98.7}, {"smiles": "COC(=O)c1cc(C(C)(C)C)cc(C(C)(C)C)c1O", "cell viability": 109}, {"smiles": "CCOc1cc(C2/C(=C(/O)c3ccc(OC)c(OC)c3)C(=O)C(=O)N2C)ccc1O", "note": "(centres undefined)", "cell viability": 101}]}]}
